From article PMC11876699, “Elongator is a microtubule polymerase selective for polyglutamylated tubulin” (The EMBO Journal, 2025)
No constants are given. Whether binding was seen depends on the method and setting. Some binding calls cover weakened binding; strength is not graded here. Where a sequence is shown, tags or fusion partners need not be part of it.

B1: Elp1 (Drosophila, untagged, co-expressed in Sf9) (protein, UniProt Q9VGK7 1-1252)
chain: MRNLKLRYCKELNAVAHPQHLLLQPELNGGASDIYFVVADNKIYAVQESGDVRLKVIADLPDIVGVEFLQLDNAICVASGAGEVILVDPQTGATSEGTFCDVGIESMAWSPNQEVVAFVTRTHNVVLMTSTFDVIAEQPLDAELDPDQQFVNVGWGKKETQFHGSEGKQAAKQKESDSTFIRDEQELNQDVSISWRGDGEFFVVSYVAAQLGRTFKVYDSEGKLNHTAEKSANLKDSVVWRPTGNWIAVPQQFPNKSTIALFEKNGLRHRELVLPFDLQEEPVVQLRWSEDSDILAIRTCAKEEQRVYLYTIGNYHWYLKQVLIFEQADPLALLHWDTRCGAEHTLHVLKESGKHLVYRWAFAVDRNNSIVGVIDGKRLLLTDFDEAIVPPPMSKIVLKFETYINAFISHGTSLWVYTCDRKIYLNEHIHTLGKELQKPIMLMPDAELSGLHLANLTHFSPHYLLATHSSAGSTRLLLLSYKDNDNKPGEWFYRVHSSVRINGLVNAVAVAPYAMNEFYVQTVNNGHTYEVSLKADKTLKVERSYVQLHEPADQIDWVIVKGCIWDGYTGALVTLRNQHLLHIDGYRIGEDVTSFCVVTNYLVYTQLNAMHFVQLDDRRQVASRNIERGAKIVTAVARKARVVLQLPRGNLEAICPRVLVLELVGDLLERGKYQKAIEMSRKQRINLNIIFDHDVKRFVSSVGAFLNDINEPQWLCLFLSELQNEDFTKGMYSSNYDASKQTYPSDYRVDQKVEYVCRLLEQQMNRFVSRFRLPLITAYVKLGCLEMALQVIWKEQQEDASLADQLLQHLLYLVDVNDLYNVALGTYDFGLVLFVAQKSQKDPKEFLPYLNDLKALPIDYRKFRIDDHLKRYTSALSHLAACGEQHYEEALEYIRKHGLYTDGLAFYREHIEFQKNIYVAYADHLRAIAKLDNASLMYERGGQLQQALLSAKHTLDWQRVLVLAKKLSEPLDQVAQSLVGPLQQQGRHMEAYELVKEHCQDRKRQFDVLLEGHLYSRAIYEAGLEDDDVSEKIAPALLAYGVQLESSLQADLQLFLDYKQRLLDIRRNQAKSGEGYIDTDVNLKEVDLLSDTTSLHSSQYSGTSRRTGKTFRSSKNRRKHERKLFSLKPGNPFEDIALIDALHNHVTKIAQQQQPVRDTCKALLQLANAADADPLAAALQREFKTLLQAVDAALDEIWTPELRGNGLMADHLTGPNVDYLALQKEQRYALLSPLKRFKPQLIMMDWQHEILQ
B2: Elp2 (Drosophila, untagged, co-expressed in Sf9) (protein, UniProt Q7K4B3 1-794)
chain: MQVENLHTSVACNRCTECADWGPNGWIAYGACNAIAIMDPKFQGNSAKVLFTLVEHTKRVNTVRWLDCDKLLSGGDDAIAILWELDETGTTKSFTLKGHTSGVNTVDGIRQQDGSWLLATAAADTTIKLWTFQDNNYVCFQTISLSDGFCFCLRLQLLPKSNQVLLAFSGDDETVSLWSEQVETAGEGDSLGRQFQRKHKLTGHEDWVRGLDFVVDGEDLLLASGSQDNFIRLWRIAPRSKEQMQENRVDLHQLSHNDDEIKVEEKILQLGKEAWYAVSLESVLYGHEGWIYGVHWHKTPDQELRLLSASIDKTVIIWAPTEEGIWLEEVRVGEVGGNSVGFYGGKFSGDGHSIMAHSYQGGFHIWSQDPDRPQLWTPGVIVGGHYGEVRDLAWEHSGAYLMTASADQTTRLHAPWLQDGANPTWHELARPQIHGYDMQALALLSRYKFASGAEEKIVRTFQAPANFIENFRHISGIENDDAGDVLLDSLPKGASVPSLGLSNKAVYKVDSEVESTSKTSKDEYPDNYFVPIALETPPQEETLMQNTLWPELQKLYGHGYEIFALAATADGSLLASTCKASNAEHAQIILWNPSNWKQIQKLSGHQLTVTQLSFSPDSRYLLSVSRDRRWCLYERQDSSVSYQLVASTDKSNGVHTRIIWSCDWSHDGQFFVTSSRDGKVVVWKKEEDCKESSLNGWQANGVLELKNESITAVAFSNSYLSGTDDTYILALGTETGLIKIYQFVRGAWKLLSDLNKSQAHHLTVRRLQFRPGKQLQLASCGEDHLVRIYDIKLT
B3: Elp5 (Drosophila, untagged, co-expressed in E. coli) (protein, UniProt Q24050 1-262)
chain: MLSNLVVTKQKVVLVIDELNRERIAPKFIGSLLHEQGQGADTIKALPTGVSLKHVATFEALIDKYANNNTGSTTDSNSTGFNVILPTLADLLCYQTPAFIFGFLNRLRRSDNVRRVFLWASPQHLQDPHADYILAGCEYLAELVLRLESDKLLSLISRKPGGGVSNRRYSCEVSKTQFKVTPLDGGLPAGASPKQPSPEAEQTTEPASSTFKIELDEDEVLARNALTLPYERTSEPSEGNIIYTPDADDDFDEEDPDEDLCI
B4: Elp6 (Drosophila, untagged, co-expressed in E. coli) (protein, UniProt Q9VFW4 1-251)
chain: MATSVLLACGLNEQKLPGFVHISEESNVDASFLISCVLGQRLRISNAGTLLVCLQHHYQHYFNAGMRLGYNTNIFQGKTLGVIDVLSDMAGEGLASKWLTNTEGQTLTDQLVEDIRAQVERNYASRNSYTVLIDNLSILFNLGASKLQVQQFCQDLAALGKEREKLTVITKLSNSDIYQLTDNNVAKLGQVRIQVLRLKSGVFREVDGKLLIERVLDEGNYACEETRKEVLYKVNDRNVKVFAPGEIGVKV

Key:
[1] = target: T1, Elp456 subcomplex (Drosophila, wild type, untagged) (Drosophila) (UniProt Q9VMQ7+Q24050+Q9VFW4); assay: cross-linking; Elp456 with the Glu10 peptide, sulfo-SDA (2 mM, 365 nm UV) or EDC (5 mM, 30 min on ice), trypsin, LC-MS/MS, XiSearch; both purified
T1 sequence 1: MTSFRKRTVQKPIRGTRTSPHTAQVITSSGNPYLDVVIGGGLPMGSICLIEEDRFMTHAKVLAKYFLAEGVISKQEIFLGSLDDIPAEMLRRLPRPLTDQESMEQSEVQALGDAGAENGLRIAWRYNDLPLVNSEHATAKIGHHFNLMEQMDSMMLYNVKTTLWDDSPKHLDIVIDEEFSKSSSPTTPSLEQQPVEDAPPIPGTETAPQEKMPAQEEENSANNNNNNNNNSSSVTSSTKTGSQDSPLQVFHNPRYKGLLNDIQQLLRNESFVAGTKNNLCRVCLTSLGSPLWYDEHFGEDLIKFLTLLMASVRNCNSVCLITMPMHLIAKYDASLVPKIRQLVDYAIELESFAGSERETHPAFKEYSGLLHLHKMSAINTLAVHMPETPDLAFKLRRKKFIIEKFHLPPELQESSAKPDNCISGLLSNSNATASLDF
T1 sequence 2: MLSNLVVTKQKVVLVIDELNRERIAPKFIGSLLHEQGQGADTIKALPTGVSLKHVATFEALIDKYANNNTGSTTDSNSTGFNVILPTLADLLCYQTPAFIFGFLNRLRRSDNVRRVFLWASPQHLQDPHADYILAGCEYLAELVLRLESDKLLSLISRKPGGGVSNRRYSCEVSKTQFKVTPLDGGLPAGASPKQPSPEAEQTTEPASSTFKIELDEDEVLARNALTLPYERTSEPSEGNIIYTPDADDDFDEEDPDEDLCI
T1 sequence 3: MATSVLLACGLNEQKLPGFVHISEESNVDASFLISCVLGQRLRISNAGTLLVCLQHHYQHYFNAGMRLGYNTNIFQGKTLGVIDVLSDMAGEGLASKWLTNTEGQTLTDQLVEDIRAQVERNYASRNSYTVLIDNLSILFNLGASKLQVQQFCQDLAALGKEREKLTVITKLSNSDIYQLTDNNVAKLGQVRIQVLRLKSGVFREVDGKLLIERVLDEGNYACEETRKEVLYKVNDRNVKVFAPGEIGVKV

[2] = target: T2, His6-PC-SNAP-Elp3 (Drosophila, co-expressed in Sf9) (Drosophila melanogaster) (UniProt Q9VQZ6); assay: co-purification (Protein C affinity, heparin, size exclusion); Elp1, Elp2 and His-PC-SNAP-Elp3 co-expressed in Sf9; held by the PC tag of Elp3
T2 sequence: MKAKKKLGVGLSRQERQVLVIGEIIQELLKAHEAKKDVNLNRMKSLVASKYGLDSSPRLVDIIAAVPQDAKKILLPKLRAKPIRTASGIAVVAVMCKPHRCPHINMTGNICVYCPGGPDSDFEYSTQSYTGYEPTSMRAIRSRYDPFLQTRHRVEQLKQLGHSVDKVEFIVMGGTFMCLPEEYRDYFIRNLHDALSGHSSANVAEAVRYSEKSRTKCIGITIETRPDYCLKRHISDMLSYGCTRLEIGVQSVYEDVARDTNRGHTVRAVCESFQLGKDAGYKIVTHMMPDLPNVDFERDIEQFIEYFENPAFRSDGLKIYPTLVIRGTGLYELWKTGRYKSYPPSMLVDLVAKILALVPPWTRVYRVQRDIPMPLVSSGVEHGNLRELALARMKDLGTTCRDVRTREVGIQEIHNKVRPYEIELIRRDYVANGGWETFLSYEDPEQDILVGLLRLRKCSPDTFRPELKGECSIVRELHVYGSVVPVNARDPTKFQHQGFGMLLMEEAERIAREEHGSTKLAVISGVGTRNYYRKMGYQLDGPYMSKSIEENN

[3] = target: T3, GST-Elp4 (Drosophila, co-expressed in E. coli) (Drosophila) (UniProt Q9VMQ7); assay: co-purification (glutathione affinity, TEV elution, size exclusion); GST-Elp4, Elp5 and Elp6 co-expressed in E. coli; held by the GST of Elp4; Superdex 200 in Elongator buffer
T3 sequence: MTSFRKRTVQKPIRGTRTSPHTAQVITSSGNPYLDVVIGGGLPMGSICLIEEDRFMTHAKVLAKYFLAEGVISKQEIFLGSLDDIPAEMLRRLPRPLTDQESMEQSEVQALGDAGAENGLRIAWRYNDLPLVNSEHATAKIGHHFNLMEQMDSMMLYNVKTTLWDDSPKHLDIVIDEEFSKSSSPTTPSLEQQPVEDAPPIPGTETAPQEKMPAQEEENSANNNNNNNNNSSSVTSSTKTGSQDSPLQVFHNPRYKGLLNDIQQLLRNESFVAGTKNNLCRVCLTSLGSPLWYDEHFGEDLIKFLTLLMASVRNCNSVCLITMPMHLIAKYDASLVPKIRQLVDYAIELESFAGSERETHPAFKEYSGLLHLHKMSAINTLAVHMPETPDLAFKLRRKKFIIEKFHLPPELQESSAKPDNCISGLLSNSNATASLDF

Row | binding [2] | binding [3] | other results | Binder
1 |  |  | binding [1]: binds | EEEEEEEEEE [Glu10 peptide (10 linear glutamate residues)]
2 | binds |  |  | B1
3 | binds |  |  | B2
4 |  | binds |  | B3
5 |  | binds |  | B4
